Test results: paper doi:10.1101/2021.06.22.449398
Results are given in words; binding and its absence hold for the method and conditions named. In cells and extracts the contact can be indirect. Some results given as binding are weak or reduced against the parent protein; the word gives no strength.

Target: GFP-tagged short isoform of zinc finger antiviral protein (GFP-ZAP-S) (human), Q7Z2W4
Test: co-IP
Conditions: remark: other sources report otherwise

B1: KHNYN (endogenous), O15037 1-678 (protein)
chain: MPTWGARPASPDRFAVSAEAENKVREQQPHVERIFSVGVSVLPKDCPDNPHIWLQLEGPKENASRAKEYLKGLCSPELQDEIHYPPKLHCIFLGAQGFFLDCLAWSTSAHLVPRAPGSLMISGLTEAFVMAQSRVEELAERLSWDFTPGPSSGASQCTGVLRDFSALLQSPGDAHREALLQLPLAVQEELLSLVQEASSGQGPGALASWEGRSSALLGAQCQGVRAPPSDGRESLDTGSMGPGDCRGARGDTYAVEKEGGKQGGPREMDWGWKELPGEEAWEREVALRPQSVGGGARESAPLKGKALGKEEIALGGGGFCVHREPPGAHGSCHRAAQSRGASLLQRLHNGNASPPRVPSPPPAPEPPWHCGDRGDCGDRGDVGDRGDKQQGMARGRGPQWKRGARGGNLVTGTQRFKEALQDPFTLCLANVPGQPDLRHIVIDGSNVAMVHGLQHYFSSRGIAIAVQYFWDRGHRDITVFVPQWRFSKDAKVRESHFLQKLYSLSLLSLTPSRVMDGKRISSYDDRFMVKLAEETDGIIVSNDQFRDLAEESEKWMAIIRERLLPFTFVGNLFMVPDDPLGRNGPTLDEFLKKPARTQGSSKAQHPSRGFAEHGKQQQGREEEKGSGGIRKTRETERLRRQLLEVFWGQDHKVDFILQREPYCRDINQLSEALLSLNF
With B1 as the binder, how does the binding read?
Its binding is “binds”.
